{"sequences": {"note": "Chains of the proteins cited; added tags and fusions are not shown. Lines headed by an entry give the natural chain unless they say otherwise; changes in a name come on top.", "UniProt P53671": "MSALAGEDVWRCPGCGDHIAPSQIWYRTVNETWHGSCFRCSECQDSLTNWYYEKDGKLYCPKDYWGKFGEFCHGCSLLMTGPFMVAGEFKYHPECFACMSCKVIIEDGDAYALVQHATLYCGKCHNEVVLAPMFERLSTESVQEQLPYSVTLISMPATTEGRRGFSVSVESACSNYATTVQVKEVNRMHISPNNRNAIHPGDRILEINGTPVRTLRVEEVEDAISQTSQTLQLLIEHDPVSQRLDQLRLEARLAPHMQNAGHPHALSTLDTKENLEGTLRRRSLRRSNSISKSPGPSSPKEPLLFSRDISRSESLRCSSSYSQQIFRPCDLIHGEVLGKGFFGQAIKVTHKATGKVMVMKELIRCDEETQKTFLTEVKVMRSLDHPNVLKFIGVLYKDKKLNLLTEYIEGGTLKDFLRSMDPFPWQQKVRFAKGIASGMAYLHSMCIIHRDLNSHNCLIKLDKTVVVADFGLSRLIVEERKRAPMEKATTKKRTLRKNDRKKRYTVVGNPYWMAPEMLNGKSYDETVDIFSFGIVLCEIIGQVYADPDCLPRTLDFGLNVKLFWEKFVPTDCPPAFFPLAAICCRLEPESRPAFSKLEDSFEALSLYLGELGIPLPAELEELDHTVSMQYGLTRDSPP"}, "source": "the supplement of paper PMC12823440", "about": "“Inhibitors supercharge kinase turnover through native proteolytic circuits” (Nature, 2025)", "note": "Structures can show the parent of a compound that is named as a salt. The list shows a part of the results. Hit calls seldom repeat between salt and free forms of one compound.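 Kinases, fused to nanoluciferase, were expressed in K562 cells; luminescence was measured every 4 h from 2 to 18 h as percent of control (DMSO = 100%, positive control = 0%). A time point is decreased if signal falls significantly (2 sigma). Hits were called by the authors by a rule that is not shown; the count of time points alone does not decide it.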"}
{"target": "LIMK2 (UniProt P53671)", "assay": "kinase-Nluc reporter destabilization hit call (1 = scored as downregulated) (binary); higher = compound decreases kinase abundance", "settings": "K562; 2-18 h"}
{"smiles": "Cn1cc(Nc2nccc(N3C[C@H]4CC[C@@H](C3)N4C(=O)[C@@H]3CC3(F)F)n2)cn1", "note": "(10 µM)", "kinase-Nluc reporter destabilization hit call": "inactive: 0"}
{"smiles": "CC(C)=CC(=O)CCC(=O)N1CCN(Cc2cc3nc(-c4cccc5[nH]ncc45)nc(N4CCOCC4)c3s2)CC1", "note": "(10 µM)", "kinase-Nluc reporter destabilization hit call": "inactive: 0"}
{"smiles": "CN(C)CCN(Cc1ccc(Cl)cc1)c1ccccn1", "note": "[Chloropyramine hydrochloride] (10 µM)", "kinase-Nluc reporter destabilization hit call": "inactive: 0"}
{"smiles": "COc1cc([N+](=O)[O-])ccc1S(=O)(=O)N1C[C@@H](CN2CCN(c3ccccn3)CC2)[C@H](c2cccc(F)c2)C1", "note": "(relative stereo) (10 µM)", "kinase-Nluc reporter destabilization hit call": "inactive: 0"}
{"smiles": "Cc1noc(C)c1-c1ccc(-c2cc(C(N)=O)c(NC(N)=O)s2)c(O[C@H]2CCNC2)c1", "note": "(10 µM)", "kinase-Nluc reporter destabilization hit call": "inactive: 0"}
{"smiles": "CC(C)(C)NC(=O)c1cncn1C1CCN(c2ccc(-c3nnc(C(F)(F)F)o3)cn2)CC1", "note": "(10 µM)", "kinase-Nluc reporter destabilization hit call": "inactive: 0"}
{"smiles": "COc1cccc(-n2c(=O)[nH]c3cc(Cl)n(-c4ccc(-c5cccc(OC)c5O)cc4)c3c2=O)c1", "note": "(2.5 µM)", "kinase-Nluc reporter destabilization hit call": "inactive: 0"}
{"smiles": "O=C(Nc1cccnc1)c1cc(C(=O)c2c(F)cccc2Br)c[nH]1", "note": "(10 µM)", "kinase-Nluc reporter destabilization hit call": "inactive: 0"}
{"smiles": "O=C(Nc1cc(Oc2cc(F)c(NC(=O)C3(C(=O)Nc4ccc(F)cc4)CC3)cc2F)ccn1)C1CC1", "note": "[Altiratinib] (10 µM)", "kinase-Nluc reporter destabilization hit call": "inactive: 0"}
{"smiles": "O=C1NC(=O)C(=Cc2ccc(-c3ccc(F)cc3)o2)S1", "note": "(stereo in doubt) (10 µM)", "kinase-Nluc reporter destabilization hit call": "inactive: 0"}
{"smiles": "O=C(NC(NC(=S)Nc1ccc(F)c([N+](=O)[O-])c1)C(Cl)(Cl)Cl)C(c1ccccc1)c1ccccc1", "note": "(stereo not drawn) (10 µM)", "kinase-Nluc reporter destabilization hit call": "inactive: 0"}
{"smiles": "Nc1ncnc2c1ncn2[C@@H]1O[C@H](CO)C[C@H]1O", "note": "[Cordycepin] (10 µM)", "kinase-Nluc reporter destabilization hit call": "inactive: 0"}
{"smiles": "CC(C)(NS(=O)(=O)c1ccc2c(Cl)cnc(N=C(N)N)c2c1)C(=O)O", "note": "(10 µM)", "kinase-Nluc reporter destabilization hit call": "inactive: 0"}
{"smiles": "COc1cc2ncnc(Nc3cccc(Cl)c3)c2cc1OC", "note": "(10 µM)", "kinase-Nluc reporter destabilization hit call": "inactive: 0"}
{"smiles": "CCOc1ccc(C(=O)Nc2ncc([N+](=O)[O-])s2)cc1", "note": "(10 µM)", "kinase-Nluc reporter destabilization hit call": "inactive: 0"}
{"smiles": "CC(C)CN[C@H]1CS(=O)(=O)C[C@@H]1S(=O)(=O)c1ccc(Cl)cc1", "note": "(10 µM)", "kinase-Nluc reporter destabilization hit call": "inactive: 0"}
{"smiles": "CCn1c(=O)c(-c2ccc(-c3cncs3)cc2Cl)cc2cnc(Nc3ccc(N4CCN(C)CC4)cc3)nc21", "note": "(2.5 µM)", "kinase-Nluc reporter destabilization hit call": "inactive: 0"}
{"smiles": "C[C@]1(O)CCC[C@@H]1n1c(=O)c(C(F)F)cc2cnc(NC3CCN(S(C)(=O)=O)CC3)nc21", "note": "(10 µM)", "kinase-Nluc reporter destabilization hit call": "inactive: 0"}
{"smiles": "COc1c(NC(=O)C(=O)c2ccc(OCCN3CCOCC3)c3ccccc23)cc(C(C)(C)C)cc1NS(C)(=O)=O", "note": "(2.5 µM)", "kinase-Nluc reporter destabilization hit call": "inactive: 0"}
{"smiles": "COc1cc(S(C)(=O)=O)ccc1Nc1nc2ccc(-c3ccc(NC(=O)[C@H](C)c4ccc(F)cc4)cc3)cn2n1", "note": "[Empesertib] (10 µM)", "kinase-Nluc reporter destabilization hit call": "inactive: 0"}
{"smiles": "Nc1cc(Nc2ccc(S(N)(=O)=O)cc2)ncn1", "note": "(10 µM)", "kinase-Nluc reporter destabilization hit call": "inactive: 0"}
{"smiles": "O=C(O)c1cc(O)ccc1O", "note": "[2,5-Dihydroxybenzoic acid] (10 µM)", "kinase-Nluc reporter destabilization hit call": "inactive: 0"}
{"smiles": "OCCNC1CCCc2c1[nH]c1ccc(-c3ccccc3)cc21", "note": "(stereo not drawn) (2.5 µM)", "kinase-Nluc reporter destabilization hit call": "active: 1"}
{"smiles": "CC(C)CC1(O)CCN(C(=O)c2ccc(NS(=O)(=O)c3cccc4nccnc34)cc2)CC1", "note": "(10 µM)", "kinase-Nluc reporter destabilization hit call": "inactive: 0"}
{"smiles": "CNC(=O)c1ccc(-c2cnc3cnc(C(=O)N(C)c4ccc(Cl)cc4)cn23)cc1", "note": "(2.5 µM)", "kinase-Nluc reporter destabilization hit call": "inactive: 0"}
{"smiles": "Cc1cc(Nc2cc(Cl)nc(Oc3ccc([N+](=O)[O-])cc3)n2)n[nH]1", "note": "[Autophinib] (2.5 µM)", "kinase-Nluc reporter destabilization hit call": "inactive: 0"}
{"smiles": "CN1CCN(c2ccc(Nc3ncc4nc(Nc5ccccc5)n([C@@H]5CCN(S(=O)(=O)C6CC6)C5)c4n3)cc2)CC1", "note": "(2.5 µM)", "kinase-Nluc reporter destabilization hit call": "inactive: 0"}
{"smiles": "Cc1c(CN2CCN(S(C)(=O)=O)CC2)sc2c(N3CCOCC3)nc(-c3cnc(N)nc3)nc12", "note": "(2.5 µM)", "kinase-Nluc reporter destabilization hit call": "inactive: 0"}
{"smiles": "O=C(NCCCNc1nc(Nc2cccc(NC(=O)N3CCCC3)c2)ncc1I)c1cccs1", "note": "(2.5 µM)", "kinase-Nluc reporter destabilization hit call": "inactive: 0"}
{"smiles": "O=C(/C=C/c1ccc(O[C@@H]2O[C@H](CO)[C@@H](O)[C@H](O)[C@H]2O[C@@H]2OC[C@](O)(CO)[C@H]2O)cc1)c1ccc(O)cc1O", "note": "[Isoliquiritin apioside] (10 µM)", "kinase-Nluc reporter destabilization hit call": "inactive: 0"}
{"smiles": "O=C1NC(=O)/C(=C/c2ccc3c(c2)OC(F)(F)O3)S1", "note": "(10 µM)", "kinase-Nluc reporter destabilization hit call": "inactive: 0"}
{"smiles": "COc1ccc([C@@H]2CC(=O)c3c(O)cc(O)cc3O2)cc1O", "note": "[Hesperetin] (10 µM)", "kinase-Nluc reporter destabilization hit call": "inactive: 0"}
{"smiles": "N#Cc1c(-c2ccccc2)cc(-c2cc(Br)ccc2O)[nH]c1=O", "note": "(10 µM)", "kinase-Nluc reporter destabilization hit call": "inactive: 0"}
{"smiles": "Cc1c(CN2CCN(C(=O)[C@H](C)O)CC2)sc2c(N3CCOCC3)nc(-c3cnc(N)nc3)nc12", "note": "[Apitolisib] (10 µM)", "kinase-Nluc reporter destabilization hit call": "inactive: 0"}
{"smiles": "NC1(Cc2ccc(Cl)cc2)CCN(c2ncnc3[nH]ccc23)CC1", "note": "(10 µM)", "kinase-Nluc reporter destabilization hit call": "inactive: 0"}
{"smiles": "O=C(/C=C/c1ccc(O)c(O)c1)c1ccc(O[C@@H]2O[C@H](CO)[C@@H](O)[C@H](O)[C@H]2O)c(O)c1O", "note": "[Marein] (10 µM)", "kinase-Nluc reporter destabilization hit call": "inactive: 0"}
{"smiles": "CN(CC(=O)N(Cc1ccc(C2CCCCC2)cc1)c1ccc(C(=O)O)cc1)S(=O)(=O)c1c(F)c(F)c(F)c(F)c1F", "note": "(2.5 µM)", "kinase-Nluc reporter destabilization hit call": "inactive: 0"}
{"smiles": "CC(C)NC(=O)N1CC[C@H](NC2=Nc3cc(F)ccc3N(CC(F)F)c3ccc(Cl)cc32)C1", "note": "(10 µM)", "kinase-Nluc reporter destabilization hit call": "inactive: 0"}
